Taken from: PubChem BioAssay AID1224828 (NIAID, 2016)
Test: 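Find genes required for NF-kappaB p65 moving into the nucleus after LPS in mouse macrophages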 (primary screen). Cell system: mouse RAW264.7 G9 macrophage reporter cells (GFP-p65, Tnf promoter-mCherry). Knock-down reagent: siRNA pool against mouse genes, 100 nM. Duration: 2 days siRNA transfection, then 40 min LPS before fixation. Challenge: LPS (Salmonella minnesota R595) at 10 ng/ml. Measured: 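Microscopy ratio of nuclear to perinuclear-ring GFP-p65 signal, scaled to the plate median; gene score is the average of two replicate robust z-scores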. Scale: p65 translocation robust z-score: higher = more nuclear NF-kappaB p65 after LPS than the plate median; nuclear/cytoplasmic p65 ratio: higher = more nuclear NF-kappaB p65. Hit rule: 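Active if robust z is above 3.3 (negative regulators) or below -1.56, the Tlr4 control median (positive regulators); activity score 50 or more; control wells not called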. Meaning of the calls: active = hit (p65 shift raised or lowered); inactive = no clear change.
The deposit covers about 17,000 reagents; shown is an unselected part. Of all reagents, 762 (4.5%) were called active. 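Active calls include both raised and lowered p65 entry, mostly lowered; wells with fewer than 50 cells lack a z-score.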 Raw values vary from plate to plate and are shown uncorrected. Entries without a mark were called inactive.

Sdhaf2 [SID315472195] → p65 translocation robust z-score = 1.19; nuclear/cytoplasmic p65 ratio, rep 1 = 1.68; nuclear/cytoplasmic p65 ratio, rep 2 = 1.63; low cell count flag = enough cells to score
Loxl4 [SID315473103] → p65 translocation robust z-score = 2.31; nuclear/cytoplasmic p65 ratio, rep 1 = 2.12; nuclear/cytoplasmic p65 ratio, rep 2 = 1.85; low cell count flag = enough cells to score
Sys1 [SID315472455] → p65 translocation robust z-score = 0; nuclear/cytoplasmic p65 ratio, rep 1 = 1.45; nuclear/cytoplasmic p65 ratio, rep 2 = 1.41; low cell count flag = enough cells to score
Rtn4ip1 [SID315477201] → p65 translocation robust z-score = -1.23; nuclear/cytoplasmic p65 ratio, rep 1 = 1.21; nuclear/cytoplasmic p65 ratio, rep 2 = 1.12; low cell count flag = enough cells to score
BC061195 [SID315473790] → p65 translocation robust z-score = -0.45; nuclear/cytoplasmic p65 ratio, rep 1 = 1.39; nuclear/cytoplasmic p65 ratio, rep 2 = 1.3; low cell count flag = enough cells to score
V1rb6 (retired record) [SID315476643] → p65 translocation robust z-score = 0.32; nuclear/cytoplasmic p65 ratio, rep 1 = 1.42; nuclear/cytoplasmic p65 ratio, rep 2 = 1.27; low cell count flag = enough cells to score
Myh14 [SID315474395] → nuclear/cytoplasmic p65 ratio, rep 1 = 1.18; nuclear/cytoplasmic p65 ratio, rep 2 = 1.01; low cell count flag = fewer than 50 cells per well; well left out of scoring
Chn1 [SID315476730] → p65 translocation robust z-score = -0.28; nuclear/cytoplasmic p65 ratio, rep 1 = 1.42; nuclear/cytoplasmic p65 ratio, rep 2 = 1.88; low cell count flag = enough cells to score
Bcl6 [SID315465619] → p65 translocation robust z-score = -0.56; nuclear/cytoplasmic p65 ratio, rep 1 = 1.5; nuclear/cytoplasmic p65 ratio, rep 2 = 1.56; low cell count flag = enough cells to score
Pgghg [SID315477768] → p65 translocation robust z-score = 0.2; nuclear/cytoplasmic p65 ratio, rep 1 = 1.69; nuclear/cytoplasmic p65 ratio, rep 2 = 1.6; low cell count flag = enough cells to score
Crygd [SID315466149] → p65 translocation robust z-score = -0.69; nuclear/cytoplasmic p65 ratio, rep 1 = 1.43; nuclear/cytoplasmic p65 ratio, rep 2 = 1.24; low cell count flag = enough cells to score
Agt [SID315465351] → p65 translocation robust z-score = 0.2; nuclear/cytoplasmic p65 ratio, rep 1 = 1.65; nuclear/cytoplasmic p65 ratio, rep 2 = 1.65; low cell count flag = enough cells to score
Lgalsl [SID315478009] → p65 translocation robust z-score = -1.37; nuclear/cytoplasmic p65 ratio, rep 1 = 1.32; nuclear/cytoplasmic p65 ratio, rep 2 = 1.24; low cell count flag = enough cells to score
Rnf182 [SID315481468] → p65 translocation robust z-score = 0.33; nuclear/cytoplasmic p65 ratio, rep 1 = 1.67; nuclear/cytoplasmic p65 ratio, rep 2 = 1.8; low cell count flag = enough cells to score
Wbp2 [SID315470023] → p65 translocation robust z-score = -0.78; nuclear/cytoplasmic p65 ratio, rep 1 = 1.5; nuclear/cytoplasmic p65 ratio, rep 2 = 1.39; low cell count flag = enough cells to score
Mtss2 [SID315479774] → nuclear/cytoplasmic p65 ratio, rep 1 = 1.04; nuclear/cytoplasmic p65 ratio, rep 2 = 1.09; low cell count flag = fewer than 50 cells per well; well left out of scoring
Mdfi [SID315467879] → nuclear/cytoplasmic p65 ratio, rep 1 = 1.44; nuclear/cytoplasmic p65 ratio, rep 2 = 1.17; low cell count flag = fewer than 50 cells per well; well left out of scoring
Gzf1 [SID315475001] → p65 translocation robust z-score = -0.3; nuclear/cytoplasmic p65 ratio, rep 1 = 1.38; nuclear/cytoplasmic p65 ratio, rep 2 = 1.21; low cell count flag = enough cells to score
Spmip8 [SID315474721] → p65 translocation robust z-score = -0.16; nuclear/cytoplasmic p65 ratio, rep 1 = 1.37; nuclear/cytoplasmic p65 ratio, rep 2 = 1.4; low cell count flag = enough cells to score
Ubtd2 [SID315481454] → p65 translocation robust z-score = -1.3; nuclear/cytoplasmic p65 ratio, rep 1 = 1.44; nuclear/cytoplasmic p65 ratio, rep 2 = 1.4; low cell count flag = enough cells to score
Foxj3 [SID315478809] → p65 translocation robust z-score = -0.16; nuclear/cytoplasmic p65 ratio, rep 1 = 1.63; nuclear/cytoplasmic p65 ratio, rep 2 = 1.56; low cell count flag = enough cells to score

Ordered by “p65 translocation robust z-score” (highest first): 2 of the entries above.
V1rb6 (retired record) [SID315476643] → p65 translocation robust z-score = 0.32; nuclear/cytoplasmic p65 ratio, rep 1 = 1.42; nuclear/cytoplasmic p65 ratio, rep 2 = 1.27; low cell count flag = enough cells to score
BC061195 [SID315473790] → p65 translocation robust z-score = -0.45; nuclear/cytoplasmic p65 ratio, rep 1 = 1.39; nuclear/cytoplasmic p65 ratio, rep 2 = 1.3; low cell count flag = enough cells to score
